Measurements as given in publication PMC6401139.

Protein sequences, listed by entry. Tags and fused reporters are not part of them. Lines headed by an entry give the natural chain unless they say otherwise; changes in a name come on top.
UniProt P21802: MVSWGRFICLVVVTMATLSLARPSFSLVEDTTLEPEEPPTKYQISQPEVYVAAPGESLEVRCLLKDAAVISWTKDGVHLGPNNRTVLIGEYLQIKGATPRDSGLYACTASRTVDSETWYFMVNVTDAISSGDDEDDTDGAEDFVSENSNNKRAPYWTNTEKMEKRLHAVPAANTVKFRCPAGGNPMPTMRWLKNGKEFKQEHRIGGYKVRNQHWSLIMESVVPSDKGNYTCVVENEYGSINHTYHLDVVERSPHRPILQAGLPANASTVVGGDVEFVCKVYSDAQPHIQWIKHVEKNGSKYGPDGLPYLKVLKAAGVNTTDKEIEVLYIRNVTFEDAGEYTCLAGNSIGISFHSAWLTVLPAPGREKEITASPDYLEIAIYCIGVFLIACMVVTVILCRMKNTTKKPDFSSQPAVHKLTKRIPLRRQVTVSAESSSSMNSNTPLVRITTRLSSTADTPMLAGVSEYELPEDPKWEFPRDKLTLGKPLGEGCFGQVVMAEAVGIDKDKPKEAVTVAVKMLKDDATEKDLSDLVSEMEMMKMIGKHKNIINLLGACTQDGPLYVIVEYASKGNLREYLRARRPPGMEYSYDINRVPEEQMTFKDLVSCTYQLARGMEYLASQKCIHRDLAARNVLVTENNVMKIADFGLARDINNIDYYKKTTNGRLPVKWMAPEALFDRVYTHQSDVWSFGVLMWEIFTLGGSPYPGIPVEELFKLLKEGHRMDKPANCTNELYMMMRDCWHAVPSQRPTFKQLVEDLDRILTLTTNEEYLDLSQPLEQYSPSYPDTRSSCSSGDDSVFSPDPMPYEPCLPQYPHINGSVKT
UniProt Q16665: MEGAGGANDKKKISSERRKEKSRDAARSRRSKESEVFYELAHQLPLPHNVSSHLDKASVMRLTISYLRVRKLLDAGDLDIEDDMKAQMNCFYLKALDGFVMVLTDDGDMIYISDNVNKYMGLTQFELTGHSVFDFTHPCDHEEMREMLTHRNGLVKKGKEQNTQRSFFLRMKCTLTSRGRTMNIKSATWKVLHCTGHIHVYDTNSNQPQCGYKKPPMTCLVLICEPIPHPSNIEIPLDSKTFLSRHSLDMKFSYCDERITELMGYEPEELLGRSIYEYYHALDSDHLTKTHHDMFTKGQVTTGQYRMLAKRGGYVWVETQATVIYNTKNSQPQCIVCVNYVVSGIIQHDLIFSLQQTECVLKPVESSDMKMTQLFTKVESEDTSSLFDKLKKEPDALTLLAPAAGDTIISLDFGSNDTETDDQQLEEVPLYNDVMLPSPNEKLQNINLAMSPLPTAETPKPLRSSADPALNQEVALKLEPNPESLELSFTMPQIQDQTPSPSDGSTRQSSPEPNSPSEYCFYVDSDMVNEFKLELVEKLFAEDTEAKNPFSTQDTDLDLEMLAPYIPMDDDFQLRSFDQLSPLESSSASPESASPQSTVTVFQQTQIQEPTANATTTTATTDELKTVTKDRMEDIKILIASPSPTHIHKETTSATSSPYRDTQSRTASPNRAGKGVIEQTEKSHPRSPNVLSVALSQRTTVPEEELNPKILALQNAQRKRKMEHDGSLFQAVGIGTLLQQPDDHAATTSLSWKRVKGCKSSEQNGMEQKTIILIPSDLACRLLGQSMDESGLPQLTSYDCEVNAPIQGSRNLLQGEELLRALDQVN
UniProt Q99814: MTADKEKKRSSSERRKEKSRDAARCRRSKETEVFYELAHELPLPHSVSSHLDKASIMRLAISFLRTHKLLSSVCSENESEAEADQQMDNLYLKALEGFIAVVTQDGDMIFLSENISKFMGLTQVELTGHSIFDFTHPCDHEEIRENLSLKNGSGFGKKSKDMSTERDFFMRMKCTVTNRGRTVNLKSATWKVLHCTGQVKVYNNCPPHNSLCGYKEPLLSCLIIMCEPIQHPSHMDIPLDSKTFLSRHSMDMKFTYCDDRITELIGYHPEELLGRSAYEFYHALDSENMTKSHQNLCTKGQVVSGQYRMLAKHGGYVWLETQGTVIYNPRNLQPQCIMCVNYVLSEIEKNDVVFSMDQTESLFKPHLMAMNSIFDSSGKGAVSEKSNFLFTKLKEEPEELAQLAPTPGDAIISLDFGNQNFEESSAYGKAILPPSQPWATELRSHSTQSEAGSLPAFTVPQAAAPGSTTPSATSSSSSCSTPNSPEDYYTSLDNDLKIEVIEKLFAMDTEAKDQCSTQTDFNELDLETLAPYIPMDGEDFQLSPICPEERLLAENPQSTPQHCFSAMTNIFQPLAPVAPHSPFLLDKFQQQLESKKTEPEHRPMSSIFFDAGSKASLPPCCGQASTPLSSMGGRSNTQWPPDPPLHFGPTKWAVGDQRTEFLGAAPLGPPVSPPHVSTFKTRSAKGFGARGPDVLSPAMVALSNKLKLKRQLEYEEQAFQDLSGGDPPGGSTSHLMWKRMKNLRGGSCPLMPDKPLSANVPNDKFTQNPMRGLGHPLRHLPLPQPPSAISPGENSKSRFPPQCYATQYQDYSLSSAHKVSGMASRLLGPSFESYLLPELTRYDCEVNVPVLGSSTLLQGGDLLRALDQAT

Tests used:
Full-length FGFR2-3XFLAG [1] = biological target: Full-length FGFR2-3XFLAG (UniProt P21802); test: co-IP; HEK293T co-transfected with FGFR2-FLAG and Gal4-CAD; hypoxia 8 h; precipitated with anti-FLAG affinity gel; blot with anti-Gal4
[2] = biological target: Gal4-CAD (aa. 776–826 of HIF-1α) (UniProt Q16665); test: co-IP; HEK293T overexpressing Gal4-CAD, HA-p300 and FGFR2-FLAG; hypoxia 8 h; precipitated with anti-Gal4; immunoblot
[3] = biological target: green fluorescence protein (GFP)-tagged HIF-1α (UniProt Q16665); test: co-IP; HEK293T co-transfected with HA-p300, GFP-HIF-1α and FGFR2-FLAG; hypoxia 8 h; precipitated with anti-HA affinity gel; immunoblot
Full-length FGFR2-3XFLAG [4] = biological target: Full-length FGFR2-3XFLAG (UniProt P21802); test: co-IP; HEK293T co-transfected with FGFR2-FLAG and HA-HIF-1α (or HIF-2α); normoxia or hypoxia (1% O2) 8 h; lysates precipitated with IgG, anti-FLAG or anti-FGFR2; immunoblot

Gal4-CAD (aa. 776–826 of HIF-1α) (from UniProt Q16665 776-826) (domain or fragment)
binding (Full-length FGFR2-3XFLAG [1]): binds

Full-length FGFR2-3XFLAG (from UniProt P21802-3) (receptor)
binding [2]: binds
binding [3]: binds

HIF-2α (ectopically expressed) (from UniProt Q99814 1-870)
binding (Full-length FGFR2-3XFLAG [4]): binds

Results are given in words; binding and its absence hold for the method and conditions named. In cells and extracts the contact can be indirect. Binding calls can cover weak binding; strength is not graded here.
